Drawing on publication doi:10.1101/2024.03.18.584613, this text covers binding for 23 molecules.

Sequences of proteins named here, by UniProt entry; tags and fusion partners are left off.
UniProt Q3KP44: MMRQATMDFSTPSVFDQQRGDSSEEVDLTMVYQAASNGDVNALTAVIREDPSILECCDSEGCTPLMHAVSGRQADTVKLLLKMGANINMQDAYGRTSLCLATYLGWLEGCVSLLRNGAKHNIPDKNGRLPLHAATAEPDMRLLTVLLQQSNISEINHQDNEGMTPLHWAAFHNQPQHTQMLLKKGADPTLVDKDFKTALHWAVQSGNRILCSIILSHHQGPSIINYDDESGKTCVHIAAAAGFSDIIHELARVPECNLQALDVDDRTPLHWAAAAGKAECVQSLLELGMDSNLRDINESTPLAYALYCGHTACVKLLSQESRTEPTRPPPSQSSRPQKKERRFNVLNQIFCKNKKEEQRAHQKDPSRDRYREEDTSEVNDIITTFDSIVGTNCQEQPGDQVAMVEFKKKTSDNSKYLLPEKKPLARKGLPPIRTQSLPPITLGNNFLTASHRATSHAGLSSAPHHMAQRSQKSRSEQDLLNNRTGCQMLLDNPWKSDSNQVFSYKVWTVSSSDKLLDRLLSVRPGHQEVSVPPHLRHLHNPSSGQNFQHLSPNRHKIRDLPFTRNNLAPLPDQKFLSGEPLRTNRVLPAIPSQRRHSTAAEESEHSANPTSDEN
UniProt O75964: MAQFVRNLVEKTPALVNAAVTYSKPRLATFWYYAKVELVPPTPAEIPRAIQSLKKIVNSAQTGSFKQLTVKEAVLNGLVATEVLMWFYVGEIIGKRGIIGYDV
UniProt P15924: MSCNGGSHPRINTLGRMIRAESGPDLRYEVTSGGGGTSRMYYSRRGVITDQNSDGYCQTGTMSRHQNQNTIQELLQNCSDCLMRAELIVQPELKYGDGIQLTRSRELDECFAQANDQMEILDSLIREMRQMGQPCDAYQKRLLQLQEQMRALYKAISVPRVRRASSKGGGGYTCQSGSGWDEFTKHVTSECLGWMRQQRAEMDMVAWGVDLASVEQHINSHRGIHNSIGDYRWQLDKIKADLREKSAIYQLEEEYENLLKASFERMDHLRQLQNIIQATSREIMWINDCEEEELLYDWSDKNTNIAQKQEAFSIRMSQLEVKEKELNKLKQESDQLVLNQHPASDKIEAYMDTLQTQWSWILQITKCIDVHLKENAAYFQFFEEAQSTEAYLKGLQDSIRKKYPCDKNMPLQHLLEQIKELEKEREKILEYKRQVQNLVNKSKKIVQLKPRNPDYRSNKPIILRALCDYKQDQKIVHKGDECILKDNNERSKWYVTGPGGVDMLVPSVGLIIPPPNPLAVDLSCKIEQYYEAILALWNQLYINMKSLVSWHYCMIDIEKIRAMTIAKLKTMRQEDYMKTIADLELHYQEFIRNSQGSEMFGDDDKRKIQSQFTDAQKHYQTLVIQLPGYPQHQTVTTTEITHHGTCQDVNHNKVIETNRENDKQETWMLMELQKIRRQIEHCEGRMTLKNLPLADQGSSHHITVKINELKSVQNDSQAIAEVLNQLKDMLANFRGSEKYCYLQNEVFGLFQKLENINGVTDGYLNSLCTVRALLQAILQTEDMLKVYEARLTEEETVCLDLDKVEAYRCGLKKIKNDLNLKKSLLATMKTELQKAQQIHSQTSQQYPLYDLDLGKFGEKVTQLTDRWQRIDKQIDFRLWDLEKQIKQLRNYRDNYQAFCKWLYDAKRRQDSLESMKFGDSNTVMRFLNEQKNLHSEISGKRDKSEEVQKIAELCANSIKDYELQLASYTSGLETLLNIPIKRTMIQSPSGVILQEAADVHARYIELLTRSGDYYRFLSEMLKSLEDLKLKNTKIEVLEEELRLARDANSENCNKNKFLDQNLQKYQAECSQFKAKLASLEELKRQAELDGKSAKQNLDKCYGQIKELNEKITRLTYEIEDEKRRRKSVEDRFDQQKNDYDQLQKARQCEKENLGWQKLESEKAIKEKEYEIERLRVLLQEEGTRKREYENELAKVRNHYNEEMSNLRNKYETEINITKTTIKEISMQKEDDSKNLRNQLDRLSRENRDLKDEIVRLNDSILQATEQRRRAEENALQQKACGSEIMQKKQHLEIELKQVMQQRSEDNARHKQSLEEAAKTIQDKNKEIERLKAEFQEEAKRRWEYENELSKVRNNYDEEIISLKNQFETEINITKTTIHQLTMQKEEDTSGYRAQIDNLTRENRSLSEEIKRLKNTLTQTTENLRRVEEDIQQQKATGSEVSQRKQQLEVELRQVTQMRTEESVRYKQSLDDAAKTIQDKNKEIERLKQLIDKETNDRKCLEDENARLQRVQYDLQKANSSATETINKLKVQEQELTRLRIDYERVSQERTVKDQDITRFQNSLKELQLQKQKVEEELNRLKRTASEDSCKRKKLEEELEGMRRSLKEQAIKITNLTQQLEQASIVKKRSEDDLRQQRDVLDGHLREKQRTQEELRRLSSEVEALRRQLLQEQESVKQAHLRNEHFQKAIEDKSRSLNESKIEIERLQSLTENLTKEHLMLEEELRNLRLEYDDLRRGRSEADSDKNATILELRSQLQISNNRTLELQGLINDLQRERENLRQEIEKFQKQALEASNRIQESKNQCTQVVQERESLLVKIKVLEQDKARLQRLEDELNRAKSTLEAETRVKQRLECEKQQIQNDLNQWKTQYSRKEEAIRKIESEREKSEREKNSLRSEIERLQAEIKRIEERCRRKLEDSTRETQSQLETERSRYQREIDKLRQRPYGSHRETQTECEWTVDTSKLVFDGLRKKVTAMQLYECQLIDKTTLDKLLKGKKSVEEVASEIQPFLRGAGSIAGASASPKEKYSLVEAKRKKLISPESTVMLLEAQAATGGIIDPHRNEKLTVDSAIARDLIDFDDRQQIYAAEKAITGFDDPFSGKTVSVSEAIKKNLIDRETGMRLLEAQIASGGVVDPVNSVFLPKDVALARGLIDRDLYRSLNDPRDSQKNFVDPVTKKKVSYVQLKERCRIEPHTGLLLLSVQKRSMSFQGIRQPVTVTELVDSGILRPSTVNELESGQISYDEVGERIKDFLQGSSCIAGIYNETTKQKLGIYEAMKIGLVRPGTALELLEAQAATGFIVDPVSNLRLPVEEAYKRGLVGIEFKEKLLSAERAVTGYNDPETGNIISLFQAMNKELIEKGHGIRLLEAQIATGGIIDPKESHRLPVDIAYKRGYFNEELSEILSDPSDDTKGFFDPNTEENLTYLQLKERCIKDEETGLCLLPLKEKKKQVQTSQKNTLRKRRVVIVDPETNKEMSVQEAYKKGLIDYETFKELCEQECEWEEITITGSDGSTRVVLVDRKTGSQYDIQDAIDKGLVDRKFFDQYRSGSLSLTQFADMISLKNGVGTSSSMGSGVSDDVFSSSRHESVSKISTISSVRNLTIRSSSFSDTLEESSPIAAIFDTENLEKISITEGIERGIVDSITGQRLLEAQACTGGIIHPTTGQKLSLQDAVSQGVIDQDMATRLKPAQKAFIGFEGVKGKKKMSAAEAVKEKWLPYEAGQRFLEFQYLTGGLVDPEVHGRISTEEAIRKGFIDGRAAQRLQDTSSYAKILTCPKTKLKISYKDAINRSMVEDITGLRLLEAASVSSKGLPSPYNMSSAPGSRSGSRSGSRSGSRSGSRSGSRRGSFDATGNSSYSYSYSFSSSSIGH
UniProt O95168: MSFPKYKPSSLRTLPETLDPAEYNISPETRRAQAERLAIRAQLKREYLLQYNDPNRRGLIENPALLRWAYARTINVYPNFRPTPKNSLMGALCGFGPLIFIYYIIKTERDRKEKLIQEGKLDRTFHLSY
UniProt P62258: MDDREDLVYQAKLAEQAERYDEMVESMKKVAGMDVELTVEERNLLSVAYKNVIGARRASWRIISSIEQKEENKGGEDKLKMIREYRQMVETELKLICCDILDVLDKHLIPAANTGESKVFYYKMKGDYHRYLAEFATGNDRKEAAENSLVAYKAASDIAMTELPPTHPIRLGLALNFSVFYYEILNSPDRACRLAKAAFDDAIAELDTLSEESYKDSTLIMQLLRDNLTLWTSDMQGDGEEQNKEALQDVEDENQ
UniProt O75947: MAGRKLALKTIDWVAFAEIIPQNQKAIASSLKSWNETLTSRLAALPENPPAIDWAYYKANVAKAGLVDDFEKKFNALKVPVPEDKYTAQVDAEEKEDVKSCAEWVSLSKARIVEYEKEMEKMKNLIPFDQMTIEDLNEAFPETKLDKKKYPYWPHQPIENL
UniProt P13010: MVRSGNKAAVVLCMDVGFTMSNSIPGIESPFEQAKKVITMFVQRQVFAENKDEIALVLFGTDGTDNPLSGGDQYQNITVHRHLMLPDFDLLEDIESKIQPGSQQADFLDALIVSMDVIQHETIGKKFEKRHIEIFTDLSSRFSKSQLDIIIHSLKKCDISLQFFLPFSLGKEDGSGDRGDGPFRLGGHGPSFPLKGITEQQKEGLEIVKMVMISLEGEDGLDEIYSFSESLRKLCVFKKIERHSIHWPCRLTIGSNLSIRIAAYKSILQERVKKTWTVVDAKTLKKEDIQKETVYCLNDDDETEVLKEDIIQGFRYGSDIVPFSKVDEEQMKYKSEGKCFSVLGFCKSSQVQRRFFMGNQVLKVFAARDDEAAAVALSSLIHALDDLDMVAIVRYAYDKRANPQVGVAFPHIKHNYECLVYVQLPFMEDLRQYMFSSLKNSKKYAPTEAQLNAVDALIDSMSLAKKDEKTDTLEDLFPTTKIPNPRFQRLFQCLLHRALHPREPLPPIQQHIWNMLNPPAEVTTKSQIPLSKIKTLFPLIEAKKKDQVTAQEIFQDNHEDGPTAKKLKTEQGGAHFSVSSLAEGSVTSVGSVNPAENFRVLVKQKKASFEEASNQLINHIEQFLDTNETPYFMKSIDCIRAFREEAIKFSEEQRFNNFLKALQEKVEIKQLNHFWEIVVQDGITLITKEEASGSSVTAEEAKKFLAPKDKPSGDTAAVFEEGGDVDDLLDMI
UniProt O00483: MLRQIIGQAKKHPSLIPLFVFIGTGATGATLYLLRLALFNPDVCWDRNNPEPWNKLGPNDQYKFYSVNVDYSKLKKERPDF
UniProt Q9P0J0: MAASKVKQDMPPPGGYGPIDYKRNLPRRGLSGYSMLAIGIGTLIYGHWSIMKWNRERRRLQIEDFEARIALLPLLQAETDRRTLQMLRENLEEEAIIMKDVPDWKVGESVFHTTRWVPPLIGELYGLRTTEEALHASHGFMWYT
UniProt P31946: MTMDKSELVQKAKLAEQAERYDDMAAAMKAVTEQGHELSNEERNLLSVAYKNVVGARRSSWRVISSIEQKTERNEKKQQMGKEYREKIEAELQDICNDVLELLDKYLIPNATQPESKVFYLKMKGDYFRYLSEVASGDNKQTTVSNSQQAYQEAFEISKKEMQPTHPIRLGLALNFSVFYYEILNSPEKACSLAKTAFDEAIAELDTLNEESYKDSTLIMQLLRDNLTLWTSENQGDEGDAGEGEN
UniProt P09874: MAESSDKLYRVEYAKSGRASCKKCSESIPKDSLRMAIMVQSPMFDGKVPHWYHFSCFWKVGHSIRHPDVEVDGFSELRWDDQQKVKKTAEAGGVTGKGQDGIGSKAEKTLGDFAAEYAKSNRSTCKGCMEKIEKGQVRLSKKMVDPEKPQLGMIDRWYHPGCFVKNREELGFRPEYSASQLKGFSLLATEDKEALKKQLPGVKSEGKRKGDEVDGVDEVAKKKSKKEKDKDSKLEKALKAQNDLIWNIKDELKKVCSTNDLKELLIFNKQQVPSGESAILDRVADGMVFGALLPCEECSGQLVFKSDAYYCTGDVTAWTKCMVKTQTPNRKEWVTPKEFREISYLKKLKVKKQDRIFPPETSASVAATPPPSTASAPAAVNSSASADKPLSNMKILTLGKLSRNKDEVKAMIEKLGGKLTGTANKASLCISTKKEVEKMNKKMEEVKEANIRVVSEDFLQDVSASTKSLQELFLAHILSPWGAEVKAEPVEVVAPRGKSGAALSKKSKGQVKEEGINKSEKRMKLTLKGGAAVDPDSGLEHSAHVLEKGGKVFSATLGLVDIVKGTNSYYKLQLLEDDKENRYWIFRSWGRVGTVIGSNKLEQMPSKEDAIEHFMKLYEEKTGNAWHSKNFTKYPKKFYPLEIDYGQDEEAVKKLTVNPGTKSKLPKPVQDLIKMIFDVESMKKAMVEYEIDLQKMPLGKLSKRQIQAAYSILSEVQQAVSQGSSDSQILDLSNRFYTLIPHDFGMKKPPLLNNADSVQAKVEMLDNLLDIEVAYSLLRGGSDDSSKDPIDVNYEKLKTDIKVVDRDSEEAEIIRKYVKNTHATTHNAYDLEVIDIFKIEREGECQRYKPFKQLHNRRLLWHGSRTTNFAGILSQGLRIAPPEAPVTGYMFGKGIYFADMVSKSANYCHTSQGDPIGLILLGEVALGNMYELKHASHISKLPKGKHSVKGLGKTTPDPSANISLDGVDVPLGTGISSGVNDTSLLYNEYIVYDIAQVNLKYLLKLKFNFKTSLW
UniProt O95816: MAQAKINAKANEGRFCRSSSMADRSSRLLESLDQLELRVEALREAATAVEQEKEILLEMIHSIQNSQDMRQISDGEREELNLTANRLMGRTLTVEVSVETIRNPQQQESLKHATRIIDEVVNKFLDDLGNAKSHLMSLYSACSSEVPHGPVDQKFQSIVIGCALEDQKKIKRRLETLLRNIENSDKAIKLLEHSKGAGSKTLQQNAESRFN

Read-outs that look alike come from different tables or passages of the source. These are yes or no findings as the source states them, for the method shown. In cells and extracts the contact can be indirect. A yes stands for co-enrichment or nearness to the bait. Other partners may have been found.

Assay in all cases: affinity purification with mass spectrometry
Experiment [1] deals with ANKRD55-MYC-FLAG (full-length ANKRD55 isoform 201 with C-terminal MYC-FLAG tags) (human) (UniProt Q3KP44).
Experiment [2] has the same target. This is another data set of the same source.
Experiment [3] has the same target. This is another data set of the same source.
Experiment [4] has the same target. This is another data set of the same source.
For experiment [5] the target is unchanged. The source holds these as a separate data set.
For experiment [6] the target is unchanged. This is another data set of the same source.
The target is the same in experiment [7]. This is another data set of the same source.
Experiment [8] shares this target. The source holds these as a separate data set.

In the case of ATP5MG (from UniProt O75964 1-103), the binding result in experiment [1] was “binds”. Still for that read-out and setting: to DSP (from UniProt P15924 1-2871) belongs “binds”.

Regarding 14-3-3ζ/δ (from UniProt P63104 1-245), the binding result in experiment [2] and in experiment [1] was “binds” each time. As for NDUFB4 (from UniProt O95168 1-129), the binding result in experiment [1] is listed as “binds”. Same read-out and setting: to SDHA (from UniProt P31040 43-664) belongs “binds”. On to 14-3-3ε (from UniProt P62258 1-255), for which the binding result in experiment [2], in experiment [1] and in experiment [3] was “binds” throughout. As to “ATP5PD, a subunit of mitochondrial ATP synthase (from UniProt O75947 1-161)”, the binding result in experiment [4] and in experiment [3] was “binds” in each case. With XRCC5 (from UniProt P13010 1-732), in experiment [1], the binding entry is “binds”.

As for NDUFA4 (from UniProt O00483 1-81), the binding result in experiment [1] is on record as “binds”. Same read-out and setting: to VDAC1 (from UniProt P21796 1-283) belongs “binds”; to XRCC6 (from UniProt P12956 1-609), “binds”. The same measure, in the same setting: the result for NDUFA13 (from UniProt Q9P0J0 1-144) reads “binds”. In the case of 14-3-3β/α (from UniProt P31946 1-246), the binding result in experiment [5], in experiment [6], in experiment [7] and in experiment [1] was “binds” each time. With PARP1 (from UniProt P09874 1-1014), the binding result in experiment [1] is listed as “binds”. Still for that read-out and setting: to PRKDC (from UniProt P78527 1-4128) belongs “binds”.

Take “BAG Cochaperone 2 (from UniProt O95816 1-211)”: the binding result in experiment [2], in experiment [1] and in experiment [3] was “binds” in each case. Consider “cullin-associated and neddylation-dissociated protein 1 (from UniProt Q86VP6 1-1230)”, for which the binding entry in experiment [1] and in experiment [4] was “binds” each time.

B1: SLC25A22, a glutamate carrier (protein, UniProt Q9H936 1-323)
chain: MADKQISLPAKLINGGIAGLIGVTCVFPIDLAKTRLQNQQNGQRVYTSMSDCLIKTVRSEGYFGMYRGAAVNLTLVTPEKAIKLAANDFFRHQLSKDGQKLTLLKEMLAGCGAGTCQVIVTTPMEMLKIQLQDAGRIAAQRKILAAQGQLSAQGGAQPSVEAPAAPRPTATQLTRDLLRSRGIAGLYKGLGATLLRDVPFSVVYFPLFANLNQLGRPASEEKSPFYVSFLAGCVAGSAAAVAVNPCDVVKTRLQSLQRGVNEDTYSGILDCARKILRHEGPSAFLKGAYCRALVIAPLFGIAQVVYFLGIAESLLGLLQDPQA
B1: the binding result in experiment [8] and in experiment [3] was “binds” in each case.

B2: 14-3-3θ (protein, UniProt P27348 1-245)
chain: MEKTELIQKAKLAEQAERYDDMATCMKAVTEQGAELSNEERNLLSVAYKNVVGGRRSAWRVISSIEQKTDTSDKKLQLIKDYREKVESELRSICTTVLELLDKYLIANATNPESKVFYLKMKGDYFRYLAEVACGDDRKQTIDNSQGAYQEAFDISKKEMQPTHPIRLGLALNFSVFYYEILNNPELACTLAKTAFDEAIAELDTLNEDSYKDSTLIMQLLRDNLTLWTSDSAGEECDAAEGAEN
Consider B2, for which the binding entry in experiment [8], in experiment [5], in experiment [6] and in experiment [7] was “binds” in each case.

B3: 14-3-3γ (protein, UniProt P61981 1-247)
chain: MVDREQLVQKARLAEQAERYDDMAAAMKNVTELNEPLSNEERNLLSVAYKNVVGARRSSWRVISSIEQKTSADGNEKKIEMVRAYREKIEKELEAVCQDVLSLLDNYLIKNCSETQYESKVFYLKMKGDYYRYLAEVATGEKRATVVESSEKAYSEAHEISKEHMQPTHPIRLGLALNYSVFYYEIQNAPEQACHLAKTAFDDAIAELDTLNEDSYKDSTLIMQLLRDNLTLWTSDQQDDDGGEGNN
Consider B3, for which the binding result in experiment [8], in experiment [2] and in experiment [3] was “binds” in each case.

B4: ATP5PB (protein, UniProt P24539 43-256)
chain: PVPPLPEYGGKVRYGLIPEEFFQFLYPKTGVTGPYVLGTGLILYALSKEIYVISAETFTALSVLGVMVYGIKKYGPFVADFADKLNEQKLAQLEEAKQASIQHIQNAIDTEKSQQALVQKRHYLFDVQRNNIAMALEVTYRERLYRVYKEVKNRLDYHISVQNMMRRKEQEHMINWVEKHVVQSISTQQEKETIAKCIADLKLLAKKAQAQPVM
Regarding B4, the binding result in experiment [8] is reported as “binds”.

B5: CAT (protein, UniProt P04040 1-527)
chain: MADSRDPASDQMQHWKEQRAAQKADVLTTGAGNPVGDKLNVITVGPRGPLLVQDVVFTDEMAHFDRERIPERVVHAKGAGAFGYFEVTHDITKYSKAKVFEHIGKKTPIAVRFSTVAGESGSADTVRDPRGFAVKFYTEDGNWDLVGNNTPIFFIRDPILFPSFIHSQKRNPQTHLKDPDMVWDFWSLRPESLHQVSFLFSDRGIPDGHRHMNGYGSHTFKLVNANGEAVYCKFHYKTDQGIKNLSVEDAARLSQEDPDYGIRDLFNAIATGKYPSWTFYIQVMTFNQAETFPFNPFDLTKVWPHKDYPLIPVGKLVLNRNPVNYFAEVEQIAFDPSNMPPGIEASPDKMLQGRLFAYPDTHRHRLGPNYLHIPVNCPYRARVANYQRDGPMCMQDNQGGAPNYYPNSFGAPEQQPSALEHSIQYSGEVRRFNTANDDNVTQVRAFYVNVLNEEQRKRLCENIAGHLKDAQIFIQKKAVKNFTEVHPDYGSHIQALLDKYNAEKPKNAIHTFVQSGSHLAAREKANL
In the case of B5, the binding entry in experiment [8] is listed as “binds”.

B6: 14-3-3η (protein, UniProt Q04917 1-246)
chain: MGDREQLLQRARLAEQAERYDDMASAMKAVTELNEPLSNEDRNLLSVAYKNVVGARRSSWRVISSIEQKTMADGNEKKLEKVKAYREKIEKELETVCNDVLSLLDKFLIKNCNDFQYESKVFYLKMKGDYYRYLAEVASGEKKNSVVEASEAAYKEAFEISKEQMQPTHPIRLGLALNFSVFYYEIQNAPEQACLLAKQAFDDAIAELDTLNEDSYKDSTLIMQLLRDNLTLWTSDQQDEEAGEGN
As for B6, the binding entry in experiment [8], in experiment [5], in experiment [6] and in experiment [7] was “binds” in each case.
